Assay results as given in the supplement of paper PMC8728848.
The other results are listed elsewhere or left out.

How the values were obtained:
Assay in all cases: glycan array binding signal (z-score within array); higher = stronger binding
Conditions in all cases: glycan notation: IUPAC condensed, linker removed
[1] = biological target: Fuc(a1-2)[GalNAc(a1-3)]Gal(b1-4)Glc
Method in brief: (§1)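 Negative Z-scores can be read as non-binding. The Z-score is calculated within each array and then averaged across arrays of one protein sequence at different concentrations or buffers and across linkers. Arrays, 3228 in all, were curated from the Consortium for Functional Glycomics database and kept only where the protein sequence was available.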

[2] = biological target: Fuc(a1-2)[GalNAc(a1-3)]Gal(b1-4)GlcNAc
Method in brief: as §1

[3] = biological target: Fuc(a1-2)[GalNAc(a1-3)]Gal(b1-4)GlcNAc(b1-2)Man(a1-3)[Fuc(a1-2)[GalNAc(a1-3)]Gal(b1-4)GlcNAc(b1-2)Man(a1-6)]Man(b1-4)GlcNAc(b1-4)GlcNAc
Method in brief: as §1

[4] = biological target: Fuc(a1-2)[GalNAc(a1-3)]Gal(b1-4)GlcNAc(b1-2)Man(a1-3)[Fuc(a1-2)[GalNAc(a1-3)]Gal(b1-4)GlcNAc(b1-2)Man(a1-6)]Man(b1-4)GlcNAc(b1-4)[Fuc(a1-6)]GlcNAc
Method in brief: as §1

[5] = biological target: Fuc(a1-2)[GalNAc(a1-3)]Gal(b1-4)GlcNAc(b1-3)Gal(b1-4)GlcNAc
Method in brief: as §1

[6] = biological target: Fuc(a1-2)[GalNAc(a1-3)]Gal(b1-4)GlcNAc(b1-3)Gal(b1-4)GlcNAc(b1-3)Gal(b1-4)GlcNAc
Method in brief: as §1

[7] = biological target: Fuc(a1-2)[GalNAc(a1-3)]Gal(b1-4)GlcNAc(b1-3)GalNAc
Method in brief: as §1

[8] = biological target: Fuc(a1-2)[GalNAc(a1-3)]Gal(b1-4)[Fuc(a1-3)]GlcNAc
Method in brief: as §1

[9] = biological target: Fuc(a1-2)[GalNAc(a1-3)]Gal(b1-4)[Fuc(a1-3)]GlcNAc(b1-3)GalNAc
Method in brief: as §1

[10] = biological target: Fuc(a1-2)[GalNAc(a1-4)]Gal(b1-4)GlcNAc
Method in brief: as §1

[11] = biological target: Fuc(a1-2)[GalNAc(b1-3)]Gal
Method in brief: as §1

Fuc(a1-3)GlcNAc = biological target: Fuc(a1-3)GlcNAc
Method in brief: as §1

[12] = biological target: Fuc(a1-3)[Gal(b1-4)]Glc6S
Method in brief: as §1

[13] = biological target: Fuc(a1-3)[Gal(b1-4)]GlcNAc
Method in brief: as §1

[14] = biological target: Fuc(a1-3)[Gal(b1-4)]GlcNAc(b1-2)Man(a1-3)[Fuc(a1-3)[Gal(b1-4)]GlcNAc(b1-2)Man(a1-6)]Man(b1-4)GlcNAc(b1-4)GlcNAc
Method in brief: as §1

[15] = biological target: Fuc(a1-3)[Gal(b1-4)]GlcNAc(b1-2)Man(a1-3)[Fuc(a1-3)[Gal(b1-4)]GlcNAc(b1-2)Man(a1-6)]Man(b1-4)GlcNAc(b1-4)[Fuc(a1-6)]GlcNAc
Method in brief: as §1

[16] = biological target: Fuc(a1-3)[Gal(b1-4)]GlcNAc(b1-3)Gal(b1-3)[Fuc(a1-4)]GlcNAc
Method in brief: as §1

[17] = biological target: Fuc(a1-3)[Gal(b1-4)]GlcNAc(b1-3)GalNAc
Method in brief: as §1

[18] = biological target: Fuc(a1-3)[Gal(b1-4)]GlcNAc(b1-4)Gal(b1-4)[Fuc(a1-3)]GlcNAc
Method in brief: as §1

[19] = biological target: Fuc(a1-3)[Gal(b1-4)]GlcNAc(b1-4)Gal(b1-4)[Fuc(a1-3)]GlcNAc(b1-4)Gal(b1-4)[Fuc(a1-3)]GlcNAc
Method in brief: as §1

[20] = biological target: Fuc(a1-3)[Gal(b1-4)]GlcNAc(b1-6)GalNAc
Method in brief: as §1

[21] = biological target: Fuc(a1-3)[Gal(b1-4)]GlcNAc(b1-6)[Gal(b1-3)GlcNAc(b1-3)]Gal(b1-4)Glc
Method in brief: as §1

[22] = biological target: Fuc(a1-3)[Gal(b1-4)]GlcNAc(b1-6)[Neu5Ac(a2-3)Gal(b1-3)]GalNAc
Method in brief: as §1

[23] = biological target: Fuc(a1-3)[Gal(b1-4)]GlcNAc6S
Method in brief: as §1

[24] = biological target: Fuc(a1-3)[Gal3S(b1-4)]GlcNAc
Method in brief: as §1

[25] = biological target: Fuc(a1-3)[Gal3S(b1-4)]GlcNAc6S
Method in brief: as §1

[26] = biological target: Fuc(a1-3)[GalNAc(b1-4)]GlcNAc
Method in brief: as §1

Fuc(a1-4)GlcNAc = biological target: Fuc(a1-4)GlcNAc
Method in brief: as §1

Fuc(b1-3)GlcNAc = biological target: Fuc(b1-3)GlcNAc
Method in brief: as §1

Gal(a1-2)Gal = biological target: Gal(a1-2)Gal
Method in brief: as §1

B1: RetS (Pseudomonas aeruginosa), Q9HUV7 (protein)
chain: MVRLRIAIGLLVSFLLLLLGPMSPAVADDAGVSSVPLQTTATTPSANQNWRLLRDESAQLRIADVLQRKEQFRPLAKRSFIFPASPQAVWLQVQLPAQKVPSWLWIFAPRVQYLDYYLVQDGQLVRDQHTGESRPFQERPLPSRSYLFSLPVDGKPMTLYVRMTSNHPLMAWFDQIDEAGLVGLEKPAYAFGMLLGGMLLLLMYNLIRFAYSRSASSLWLAAVHAALAVCAAANLGLVAFWLPGLKFNQSLTADLGALGAAVSLLWFACSFFRGTAESRLNRLLQGEALLILAVGAIIAFTQQLWFSWLIYLLVILSSLSVPLIAAWHWYRGYQPARLIVAGMIVFNAGFMVFLPVLFGTKQLDPGWLVLGVFSFATLAGLVLSVSLTERQRLIQQLNLQQRTSEAAHTAELQTKAEFLAKISHEIRTPMNGVLGMTELLLGTPLSAKQRDYVQTIHSAGNELLTLINEILDISKLESGQIELDEVQFDLNALIEDCLDIFRVKAEQQRIELISFTQPQVPRVIGGDPTRLRQVVLSLLDNAFKQTEEGEILLVVALDDQGETPRLRIAVQDSGHPFDAKEREALLTAELHSGDFLSASKLGSHLGLIIARQLVRLMGGEFGIQSGSSQGTTLSLTLPLDPQQLENPTADLDGPLQGARLLVVDDNETCRKVLVQQCSGWGLNVSAVSSGKEALAQLRTKAHLREYFDVVLLDQDMPGMTGMQLAAKIKEDPNLNHDILLIMLTGISNAPSKIIARNAGIKRILAKPVAGYTLKATLADELAQRGVSGVTNYLQPAKEAQAPSLPSDFRILVAEDNSISTKVIRGMLNKLNLQPDTASNGQEALSAMKATQYDLVLMDCEMPVLDGFSATEQLRAWEAHEQRPHTPVVALTAHILSEHKERARLVGMDGHMAKPVELSQLRELIAYWVGERDRRRQGDALPS
B1 was tested, and the “glycan array binding signal (z-score)” value [1] was 0.272, the “glycan array binding signal (z-score)” value [2] was -0.521 and the “glycan array binding signal (z-score)” value [3] was -1.25. The “glycan array binding signal (z-score)” value [4] was 1.59, the “glycan array binding signal (z-score)” value [5] was 0.632 and the “glycan array binding signal (z-score)” value [6] was 2.47. The “glycan array binding signal (z-score)” value [7] was -0.762, the “glycan array binding signal (z-score)” value [8] was -0.056 and the “glycan array binding signal (z-score)” value [9] was 1.18. The “glycan array binding signal (z-score)” value [10] was 0.645, the “glycan array binding signal (z-score)” value [11] was 0.079 and the “glycan array binding signal (z-score)” value (Fuc(a1-3)GlcNAc) was -0.545. The “glycan array binding signal (z-score)” value [12] was -0.456, the “glycan array binding signal (z-score)” value [13] was -0.197 and the “glycan array binding signal (z-score)” value [14] was -0.221. The “glycan array binding signal (z-score)” value [15] was -0.419, the “glycan array binding signal (z-score)” value [16] was -0.855 and the “glycan array binding signal (z-score)” value [17] was -0.52. For the same binder, the “glycan array binding signal (z-score)” value [18] was -0.567, the “glycan array binding signal (z-score)” value [19] was -0.414 and the “glycan array binding signal (z-score)” value [20] was 1.36. For the same binder, the “glycan array binding signal (z-score)” value [21] was -0.043, the “glycan array binding signal (z-score)” value [22] was -0.508 and the “glycan array binding signal (z-score)” value [23] was -0.381. For the same binder, the “glycan array binding signal (z-score)” value [24] was 0.507, the “glycan array binding signal (z-score)” value [25] was 1.05 and the “glycan array binding signal (z-score)” value [26] was -0.833. The “glycan array binding signal (z-score)” value (Fuc(a1-4)GlcNAc) was -1.12, the “glycan array binding signal (z-score)” value (Fuc(b1-3)GlcNAc) was 0.448 and the “glycan array binding signal (z-score)” value (Gal(a1-2)Gal) was -0.508.
